These are yes or no findings as the source states them, for the method shown. For some assays here: In cells and extracts the contact can be indirect. Some entries that bind do so weakly or less than the wild type.
Experiments:
[1] = target: T1, recombinant Pfs38 (6-Cys domain, aa 153–328) (Plasmodium falciparum) (UniProt Q8I423); assay: ELISA; inhibition assay: Pfs38 coated at 2 µg/mL; anti-Pfs38 antibodies at 0.25, 0.5, 1 and 2 mg/mL for 30 min, then glycophorin A at 20 µg/mL for 2 h; both purified
T1 sequence: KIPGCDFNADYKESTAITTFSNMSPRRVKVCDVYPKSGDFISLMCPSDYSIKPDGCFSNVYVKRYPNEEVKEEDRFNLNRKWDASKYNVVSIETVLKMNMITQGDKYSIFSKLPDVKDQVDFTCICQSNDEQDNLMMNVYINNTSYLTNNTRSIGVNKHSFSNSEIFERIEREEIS

Chains of the proteins cited; added tags and fusions are not shown. Residues count along the entry.
UniProt P02724, residues 20-150: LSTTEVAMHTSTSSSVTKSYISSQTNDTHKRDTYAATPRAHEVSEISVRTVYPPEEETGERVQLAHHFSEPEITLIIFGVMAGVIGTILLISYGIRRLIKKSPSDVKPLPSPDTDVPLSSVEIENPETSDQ
UniProt Q9TY95, residues 23-997: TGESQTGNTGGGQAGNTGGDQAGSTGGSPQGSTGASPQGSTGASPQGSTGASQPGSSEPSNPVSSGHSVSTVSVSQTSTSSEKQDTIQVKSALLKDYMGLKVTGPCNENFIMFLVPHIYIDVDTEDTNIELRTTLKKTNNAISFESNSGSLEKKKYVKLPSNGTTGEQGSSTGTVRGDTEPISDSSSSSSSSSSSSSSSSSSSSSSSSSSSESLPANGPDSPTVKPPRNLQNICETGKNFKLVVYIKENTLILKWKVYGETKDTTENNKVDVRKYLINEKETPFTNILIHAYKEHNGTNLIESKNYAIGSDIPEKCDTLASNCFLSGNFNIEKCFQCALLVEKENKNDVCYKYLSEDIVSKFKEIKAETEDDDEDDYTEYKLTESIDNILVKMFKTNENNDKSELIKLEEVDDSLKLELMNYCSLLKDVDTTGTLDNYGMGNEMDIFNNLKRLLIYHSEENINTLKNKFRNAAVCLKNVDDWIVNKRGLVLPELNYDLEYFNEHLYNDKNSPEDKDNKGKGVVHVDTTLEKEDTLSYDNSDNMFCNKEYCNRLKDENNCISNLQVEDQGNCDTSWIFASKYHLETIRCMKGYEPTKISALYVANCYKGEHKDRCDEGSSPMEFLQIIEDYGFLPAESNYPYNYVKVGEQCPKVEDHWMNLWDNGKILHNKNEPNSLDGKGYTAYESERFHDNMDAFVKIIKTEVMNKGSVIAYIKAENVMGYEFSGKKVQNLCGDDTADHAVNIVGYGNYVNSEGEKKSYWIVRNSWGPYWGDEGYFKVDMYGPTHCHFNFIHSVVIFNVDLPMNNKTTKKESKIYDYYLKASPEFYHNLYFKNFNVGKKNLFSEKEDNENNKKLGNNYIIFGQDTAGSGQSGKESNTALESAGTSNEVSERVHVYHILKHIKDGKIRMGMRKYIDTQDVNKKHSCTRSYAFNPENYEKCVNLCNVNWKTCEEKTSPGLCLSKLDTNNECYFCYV

[2] = target: native Pfs38 (Plasmodium falciparum 3D7 (endogenous in cultured parasites)) (UniProt Q8I423); assay: co-sedimentation; schizont lysate (0.5% Nonidet P-40/Hepes-buffered saline) on a 5-45% step glycerol gradient, 38,000 rpm, 18 h, 4 °C; fractions analysed by Western blot and fraction 5 by LC-MS/MS
[3] = target: T1, recombinant Pfs38 (6-Cys domain, aa 153–328) (Plasmodium falciparum); assay: ELISA; Pfs38 coated at 2 µg/mL overnight at 4 °C; recombinant partners added at 2, 5, 10 and 20 µg/ml for 2 h; detected with polyclonal antibody against the added protein; both purified
[4] = target: T1, recombinant Pfs38 (6-Cys domain, aa 153–328) (Plasmodium falciparum); assay: far-Western, overlay or dot blot; 1-5 µg recombinant protein separated by SDS-PAGE, blotted, denatured and renatured; membrane incubated with 2 µg/mL purified GLURP R2, Pfs38 or SERA-5 in 100 mM NaCl, 20 mM Tris pH 7.6, 0.5 mM EDTA, 10% glycerol, 1 mM DTT, 2 h at RT; detected with antisera to the soluble protein; both purified
[5] = target: glycophorin A (human) (UniProt P02724); assay: ELISA; glycophorin A coated at 1 µg/mL at 4 °C; increasing concentrations of Pfs38, GLURP R2 or PfMLH added for 2 h; both purified

glycophorin A (from UniProt P02724 20-150) (receptor)
binding [1]: binds

native Serine repeat antigen 5 (SERA-5) (from UniProt Q9TY95 23-997)
binding [2]: binds

recombinant SERA5 (from UniProt Q9TY95 23-997)
binding [3]: binds
binding [4]: binds

B1: recombinant Pfs38 (6-Cys domain, aa 153–328) (domain or fragment)
chain: T1 sequence
notes: Pfs38, Plasmodium falciparum 6-Cys protein; 6-Cys domain aa 153-328, amplified from a codon-optimised synthetic gene (aa 22-328) and cloned in pET28b between NcoI and XhoI; Cloning in pET28b between NcoI and XhoI would give a C-terminal His6 (surmised); The forward primer adds a few residues (Met-Gly-Ser) before the insert (surmised from the primer); also called rPfs38
binding [5]: binds

Source: PMC5312596, “A novel Pfs38 protein complex on the surface of Plasmodium falciparum blood-stage merozoites” (Malaria Journal, 2017)
